Measured values as given in the supplement of paper PMC10849652.
Some of the results follow.

Amino acid sequences for entries named in this document (tags omitted). A change or cut given only in a name is not applied to a line headed by its entry.
UniProt Q9P244: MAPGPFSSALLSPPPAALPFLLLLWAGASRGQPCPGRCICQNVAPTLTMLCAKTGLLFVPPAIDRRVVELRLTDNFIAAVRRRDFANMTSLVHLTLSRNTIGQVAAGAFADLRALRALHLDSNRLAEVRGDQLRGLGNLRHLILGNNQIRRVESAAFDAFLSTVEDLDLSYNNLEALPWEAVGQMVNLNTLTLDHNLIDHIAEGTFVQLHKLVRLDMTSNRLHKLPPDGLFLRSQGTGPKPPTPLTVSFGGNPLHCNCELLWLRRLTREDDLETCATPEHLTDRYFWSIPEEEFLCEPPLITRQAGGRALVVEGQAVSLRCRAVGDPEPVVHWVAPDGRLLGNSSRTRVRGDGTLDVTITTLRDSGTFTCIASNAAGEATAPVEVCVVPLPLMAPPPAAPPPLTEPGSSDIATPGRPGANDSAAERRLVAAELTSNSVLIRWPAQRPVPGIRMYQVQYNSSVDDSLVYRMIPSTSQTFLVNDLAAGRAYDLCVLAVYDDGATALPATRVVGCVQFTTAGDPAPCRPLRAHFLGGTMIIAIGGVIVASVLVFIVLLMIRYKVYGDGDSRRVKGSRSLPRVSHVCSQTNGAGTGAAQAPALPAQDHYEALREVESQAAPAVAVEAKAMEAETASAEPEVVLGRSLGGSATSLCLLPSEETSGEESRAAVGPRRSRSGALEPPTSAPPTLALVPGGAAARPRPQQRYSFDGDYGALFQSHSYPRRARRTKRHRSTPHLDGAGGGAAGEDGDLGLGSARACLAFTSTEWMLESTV
UniProt E9PP15: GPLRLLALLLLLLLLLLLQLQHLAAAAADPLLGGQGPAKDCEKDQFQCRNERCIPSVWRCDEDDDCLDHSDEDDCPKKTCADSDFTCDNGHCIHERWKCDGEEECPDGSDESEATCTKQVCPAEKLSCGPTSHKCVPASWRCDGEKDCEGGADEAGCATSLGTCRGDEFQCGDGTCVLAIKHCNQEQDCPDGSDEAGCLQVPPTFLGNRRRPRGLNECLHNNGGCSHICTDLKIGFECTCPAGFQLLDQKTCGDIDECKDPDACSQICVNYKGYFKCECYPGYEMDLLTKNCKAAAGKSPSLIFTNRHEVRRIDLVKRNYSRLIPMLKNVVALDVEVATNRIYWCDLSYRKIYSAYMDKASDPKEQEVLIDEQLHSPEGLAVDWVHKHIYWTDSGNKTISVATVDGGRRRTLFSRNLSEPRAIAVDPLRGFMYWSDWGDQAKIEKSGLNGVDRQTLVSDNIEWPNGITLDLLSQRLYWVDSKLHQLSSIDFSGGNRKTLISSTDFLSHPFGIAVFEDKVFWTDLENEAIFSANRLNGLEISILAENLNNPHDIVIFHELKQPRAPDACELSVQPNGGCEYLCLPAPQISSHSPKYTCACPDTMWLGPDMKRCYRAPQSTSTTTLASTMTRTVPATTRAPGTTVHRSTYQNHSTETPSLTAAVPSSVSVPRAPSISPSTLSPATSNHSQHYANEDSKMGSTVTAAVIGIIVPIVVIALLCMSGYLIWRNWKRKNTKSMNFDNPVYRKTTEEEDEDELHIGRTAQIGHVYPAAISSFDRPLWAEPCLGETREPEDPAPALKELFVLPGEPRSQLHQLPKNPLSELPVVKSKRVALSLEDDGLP
UniProt O00214: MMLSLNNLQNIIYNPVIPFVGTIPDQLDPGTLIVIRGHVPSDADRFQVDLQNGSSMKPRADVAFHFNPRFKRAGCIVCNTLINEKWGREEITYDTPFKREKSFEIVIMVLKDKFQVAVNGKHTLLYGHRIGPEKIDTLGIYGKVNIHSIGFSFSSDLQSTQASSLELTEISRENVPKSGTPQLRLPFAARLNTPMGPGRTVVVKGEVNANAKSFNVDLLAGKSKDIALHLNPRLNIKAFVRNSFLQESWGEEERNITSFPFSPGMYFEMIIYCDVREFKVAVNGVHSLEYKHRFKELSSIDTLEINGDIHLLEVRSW
UniProt P49916: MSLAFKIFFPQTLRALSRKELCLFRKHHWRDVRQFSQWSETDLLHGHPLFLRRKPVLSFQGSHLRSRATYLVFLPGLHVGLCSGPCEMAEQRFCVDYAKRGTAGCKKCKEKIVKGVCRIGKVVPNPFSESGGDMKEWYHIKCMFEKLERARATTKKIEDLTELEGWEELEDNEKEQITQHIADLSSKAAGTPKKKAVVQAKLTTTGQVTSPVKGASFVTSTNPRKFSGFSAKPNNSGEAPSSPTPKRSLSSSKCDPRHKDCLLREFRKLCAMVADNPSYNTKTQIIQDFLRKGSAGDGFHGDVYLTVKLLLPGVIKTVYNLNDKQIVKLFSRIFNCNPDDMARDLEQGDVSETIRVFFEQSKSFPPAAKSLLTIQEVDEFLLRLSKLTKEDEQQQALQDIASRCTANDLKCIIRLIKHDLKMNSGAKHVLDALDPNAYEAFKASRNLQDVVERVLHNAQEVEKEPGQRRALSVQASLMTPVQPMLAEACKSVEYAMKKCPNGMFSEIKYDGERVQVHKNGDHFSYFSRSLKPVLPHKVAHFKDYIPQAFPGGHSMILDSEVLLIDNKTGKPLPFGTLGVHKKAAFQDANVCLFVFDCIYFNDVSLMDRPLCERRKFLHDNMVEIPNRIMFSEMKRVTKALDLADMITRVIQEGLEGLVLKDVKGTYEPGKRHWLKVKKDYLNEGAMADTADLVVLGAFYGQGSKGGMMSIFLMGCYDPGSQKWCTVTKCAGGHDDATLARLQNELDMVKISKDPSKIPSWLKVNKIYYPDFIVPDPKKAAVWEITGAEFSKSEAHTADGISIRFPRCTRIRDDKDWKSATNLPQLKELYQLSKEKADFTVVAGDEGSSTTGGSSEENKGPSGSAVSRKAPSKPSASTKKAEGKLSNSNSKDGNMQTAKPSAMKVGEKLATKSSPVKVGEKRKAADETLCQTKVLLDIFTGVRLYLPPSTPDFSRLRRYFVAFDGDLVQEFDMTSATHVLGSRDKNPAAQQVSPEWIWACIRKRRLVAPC
UniProt Q86VI4: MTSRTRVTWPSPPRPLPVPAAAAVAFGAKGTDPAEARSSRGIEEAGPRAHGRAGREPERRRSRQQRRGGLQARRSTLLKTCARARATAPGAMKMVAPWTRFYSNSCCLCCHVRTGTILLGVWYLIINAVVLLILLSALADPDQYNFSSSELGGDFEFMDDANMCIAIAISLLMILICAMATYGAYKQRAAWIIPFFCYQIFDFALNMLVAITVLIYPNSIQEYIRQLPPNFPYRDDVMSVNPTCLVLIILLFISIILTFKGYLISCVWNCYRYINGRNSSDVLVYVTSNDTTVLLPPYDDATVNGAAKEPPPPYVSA
UniProt O75581: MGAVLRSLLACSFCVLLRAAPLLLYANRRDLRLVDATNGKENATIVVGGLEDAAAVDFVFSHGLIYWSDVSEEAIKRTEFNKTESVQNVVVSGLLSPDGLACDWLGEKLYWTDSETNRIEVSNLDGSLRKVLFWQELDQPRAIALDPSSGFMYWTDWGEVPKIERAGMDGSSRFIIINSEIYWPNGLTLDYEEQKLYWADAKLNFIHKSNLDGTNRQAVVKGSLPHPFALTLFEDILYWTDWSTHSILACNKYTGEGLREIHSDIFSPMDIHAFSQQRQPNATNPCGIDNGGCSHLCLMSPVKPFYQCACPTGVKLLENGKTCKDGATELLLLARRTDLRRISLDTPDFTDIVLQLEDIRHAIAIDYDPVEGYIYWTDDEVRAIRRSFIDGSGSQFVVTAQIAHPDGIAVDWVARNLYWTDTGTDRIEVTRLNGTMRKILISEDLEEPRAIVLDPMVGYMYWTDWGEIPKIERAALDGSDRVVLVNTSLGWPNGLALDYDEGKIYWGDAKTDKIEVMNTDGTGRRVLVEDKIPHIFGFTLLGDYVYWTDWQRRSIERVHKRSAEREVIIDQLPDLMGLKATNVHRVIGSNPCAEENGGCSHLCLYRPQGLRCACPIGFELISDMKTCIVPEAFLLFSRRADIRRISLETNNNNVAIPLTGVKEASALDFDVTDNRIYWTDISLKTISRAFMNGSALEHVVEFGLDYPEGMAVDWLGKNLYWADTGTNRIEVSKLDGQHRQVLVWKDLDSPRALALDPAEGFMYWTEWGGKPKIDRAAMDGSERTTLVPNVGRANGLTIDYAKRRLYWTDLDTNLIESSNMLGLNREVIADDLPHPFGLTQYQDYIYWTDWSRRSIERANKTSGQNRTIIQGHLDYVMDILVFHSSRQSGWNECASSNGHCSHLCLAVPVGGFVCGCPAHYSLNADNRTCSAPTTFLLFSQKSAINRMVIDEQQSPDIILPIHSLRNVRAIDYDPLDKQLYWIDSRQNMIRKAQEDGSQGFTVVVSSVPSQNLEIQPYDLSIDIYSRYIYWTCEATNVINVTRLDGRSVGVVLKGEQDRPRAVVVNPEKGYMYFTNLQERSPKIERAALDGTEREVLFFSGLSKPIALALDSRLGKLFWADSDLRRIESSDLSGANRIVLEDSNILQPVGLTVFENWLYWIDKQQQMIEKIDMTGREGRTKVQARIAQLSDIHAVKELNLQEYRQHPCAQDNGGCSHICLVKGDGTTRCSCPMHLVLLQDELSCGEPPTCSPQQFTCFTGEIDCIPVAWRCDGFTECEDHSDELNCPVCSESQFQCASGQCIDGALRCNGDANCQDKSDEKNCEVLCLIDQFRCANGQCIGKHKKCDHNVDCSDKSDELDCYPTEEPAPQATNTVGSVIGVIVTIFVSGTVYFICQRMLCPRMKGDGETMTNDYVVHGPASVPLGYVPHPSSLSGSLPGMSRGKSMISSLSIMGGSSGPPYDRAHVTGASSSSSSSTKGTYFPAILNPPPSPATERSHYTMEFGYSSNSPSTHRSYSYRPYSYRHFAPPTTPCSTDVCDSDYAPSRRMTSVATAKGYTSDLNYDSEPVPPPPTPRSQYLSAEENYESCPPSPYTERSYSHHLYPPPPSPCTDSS
UniProt P61968: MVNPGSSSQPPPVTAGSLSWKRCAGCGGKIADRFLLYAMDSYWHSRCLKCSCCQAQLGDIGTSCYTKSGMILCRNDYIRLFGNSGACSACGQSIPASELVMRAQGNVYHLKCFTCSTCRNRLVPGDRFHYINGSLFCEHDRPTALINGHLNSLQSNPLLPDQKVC
UniProt Q13094: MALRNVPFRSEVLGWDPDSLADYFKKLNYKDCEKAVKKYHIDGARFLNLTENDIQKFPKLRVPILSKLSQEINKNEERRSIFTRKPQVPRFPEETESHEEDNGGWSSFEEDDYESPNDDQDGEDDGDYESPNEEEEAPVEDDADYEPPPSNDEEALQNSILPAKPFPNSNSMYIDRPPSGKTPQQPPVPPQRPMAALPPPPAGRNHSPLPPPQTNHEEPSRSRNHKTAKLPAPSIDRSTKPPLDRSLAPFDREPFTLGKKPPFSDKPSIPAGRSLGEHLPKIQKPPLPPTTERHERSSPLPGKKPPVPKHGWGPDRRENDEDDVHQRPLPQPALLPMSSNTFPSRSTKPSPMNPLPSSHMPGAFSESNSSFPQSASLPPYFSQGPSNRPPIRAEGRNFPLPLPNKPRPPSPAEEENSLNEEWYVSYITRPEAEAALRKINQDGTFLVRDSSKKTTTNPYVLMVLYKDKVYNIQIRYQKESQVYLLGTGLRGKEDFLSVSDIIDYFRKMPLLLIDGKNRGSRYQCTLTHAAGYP
UniProt Q9Y4W2: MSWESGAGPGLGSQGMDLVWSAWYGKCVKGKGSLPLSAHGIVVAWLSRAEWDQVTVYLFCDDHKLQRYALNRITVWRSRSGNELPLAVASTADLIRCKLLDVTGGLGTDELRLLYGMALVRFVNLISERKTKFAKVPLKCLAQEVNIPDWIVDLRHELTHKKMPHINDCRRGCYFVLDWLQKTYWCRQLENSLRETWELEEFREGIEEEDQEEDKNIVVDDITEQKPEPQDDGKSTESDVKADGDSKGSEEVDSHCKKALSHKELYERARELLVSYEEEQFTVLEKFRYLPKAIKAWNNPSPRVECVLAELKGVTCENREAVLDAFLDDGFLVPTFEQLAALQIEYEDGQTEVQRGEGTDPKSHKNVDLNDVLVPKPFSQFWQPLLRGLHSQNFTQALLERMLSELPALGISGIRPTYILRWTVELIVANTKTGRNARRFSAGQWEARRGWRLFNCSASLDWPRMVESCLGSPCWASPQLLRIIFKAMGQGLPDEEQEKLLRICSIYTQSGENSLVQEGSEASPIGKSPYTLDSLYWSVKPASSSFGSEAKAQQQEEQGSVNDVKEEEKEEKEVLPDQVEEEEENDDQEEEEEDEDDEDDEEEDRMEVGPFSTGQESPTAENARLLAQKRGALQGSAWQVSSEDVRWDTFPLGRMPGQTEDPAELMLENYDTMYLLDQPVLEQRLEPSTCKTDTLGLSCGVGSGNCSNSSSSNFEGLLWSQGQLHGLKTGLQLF

What was measured:
Test in all cases: log2 fold change, soluble protein after heating vs DMSO (PISA); higher = thermal stabilisation; K562 cells, 10 uM, 30 min; active = over 0.2 and 3.5 SD of the protein, either way, in both replicates (recomputed)
bafetinib = compound: Cc1ccc(NC(=O)c2ccc(CN3CC[C@H](N(C)C)C3)c(C(F)(F)F)c2)cc1Nc1nccc(-c2cncnc2)n1 [bafetinib]
Outline: (§1)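 K562 cells (2×10^6 cells/mL) were treated with 10 μM compound for 30 min, and aliquots were heated for 3 min over 48°C-58°C. Pooled aliquots were extracted in PBS with 0.5% NP-40 at 4°C, and the supernatant after 21,000xg for 90 min was measured by TMTpro 16plex LC-MS/MS with channel sums equalised. Reported thermal stability, relative to control samples and from duplicates, is a log2 fold change.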

dasatinib = compound: Cc1nc(Nc2ncc(C(=O)Nc3c(C)cccc3Cl)s2)cc(N2CCN(CCO)CC2)n1 [dasatinib]
Outline: as §1

[1] = compound: Cn1cc(-c2ccc3c(c2)CCN3C(=O)Cc2cccc(C(F)(F)F)c2)c2c(N)ncnc21
Outline: as §1

[2] = compound: Cn1cc(-c2ccc3nnc(C(F)(F)c4ccc5ncccc5c4)n3n2)cn1
Outline: as §1

tipifarnib = compound: Cn1cncc1[C@@](N)(c1ccc(Cl)cc1)c1ccc2c(c1)c(-c1cccc(Cl)c1)cc(=O)n2C [tipifarnib]
Outline: as §1

[3] = compound: NC(=O)Nc1cc(-c2cccc(F)c2)sc1C(=O)N[C@H]1CCCNC1
Outline: as §1

[4] = compound: NCC(=O)Nc1ccc(-n2nc(C(F)(F)F)cc2-c2ccc3c(ccc4ccccc43)c2)cc1
Outline: as §1

entinostat = compound: Nc1ccccc1NC(=O)c1ccc(CNC(=O)OCc2cccnc2)cc1 [entinostat]
Outline: as §1

citarinostat = compound: O=C(CCCCCCNC(=O)c1cnc(N(c2ccccc2)c2ccccc2Cl)nc1)NO [citarinostat]
Outline: as §1

[5] = compound: O=C1NC(=O)C(c2cnc3ccccn23)=C1c1cn2c3c(cc(F)cc13)CN(C(=O)N1CCCCC1)CC2
Outline: as §1

[6] = compound: c1cc(OCCN2CCCCC2)cc(-c2n[nH]c3ccc(-c4nnc[nH]4)cc23)c1
Outline: as §1

mubritinib = compound: FC(F)(F)c1ccc(/C=C/c2nc(COc3ccc(CCCCn4ccnn4)cc3)co2)cc1 [mubritinib]
Outline: as §1

[7] = compound: NC(=O)c1cnc(N[C@@H]2CCCC[C@@H]2N)nc1Nc1cccc(-n2nccn2)c1
Outline: as §1

[8] = compound: NC1(c2ccc(-c3nc4ccn5c(=O)[nH]nc5c4cc3-c3ccccc3)cc2)CCC1
Outline: as §1

silmitasertib = compound: O=C(O)c1ccc2c(c1)nc(Nc1cccc(Cl)c1)c1ccncc12 [silmitasertib]
Outline: as §1

[9] = compound: Cc1cccc(CC(=O)N2CCc3c2ccc(-c2cn(C)c4ncnc(N)c24)c3F)n1
Outline: as §1

vorinostat = compound: O=C(CCCCCCC(=O)Nc1ccccc1)NO [vorinostat]
Outline: as §1

nilotinib = compound: Cc1cn(-c2cc(NC(=O)c3ccc(C)c(Nc4nccc(-c5cccnc5)n4)c3)cc(C(F)(F)F)c2)cn1 [nilotinib]
Outline: as §1

[10] = compound: Cc1nc(Nc2n[nH]c3c2CN(C(=O)N[C@H](CN(C)C)c2ccccc2)C3(C)C)c2sccc2n1
Outline: as §1

[11] = compound: Cc1ncc(-c2ccnc(Nc3ccc(S(C)(=O)=O)cc3)n2)n1C(C)C
Outline: as §1

Measured: log2 fold change

LRFN1 (UniProt Q9P244)
inactive: bafetinib -0.017 | dasatinib -0.129 | [1] 0.178 | [2] 0.011 | tipifarnib -0.026 | [3] -0.14 | [4] -0.166 | entinostat 0.133 | citarinostat -0.06 | [5] 0.036 | [6] 0.716

LRP8 (UniProt E9PP15)
inactive: bafetinib -0.372 | dasatinib 0.033 | [1] -0.057 | [2] -0.018 | tipifarnib 0.093 | mubritinib 0.088 | [3] 0.052 | [7] -0.104 | [8] -0.152 | [4] 0.083 | entinostat 0.07 | citarinostat 0.03 | silmitasertib 0.006 | [5] -0.089 | [6] -0.052

LGALS8 isoform 2 (UniProt O00214)
inactive: bafetinib 0.107 | [9] 0.079 | dasatinib 0.013 | [1] -0.253 | mubritinib -0.186 | [3] -0.053 | [7] -0.096 | [8] 0.179 | [4] 0.055 | entinostat 0.091 | vorinostat 0.078 | citarinostat 0.051 | silmitasertib 0.147 | [5] 0.121 | [6] -0.129

LIG3 (UniProt P49916)
inactive: [9] -0.243 | nilotinib 0.068 | [10] 0.069 | dasatinib 0.017 | [11] -0.025 | [1] 0.17 | tipifarnib 0.09 | mubritinib 0.183 | [3] 0.019 | [7] 0.125 | [8] -0.024 | entinostat -0.015 | vorinostat -0.102 | silmitasertib -0.021

LAPTM4B (UniProt Q86VI4)
inactive: bafetinib 0.024 | [9] -0.137 | mubritinib 0.017 | [3] -0.109 | [8] 0.116 | entinostat -0.126 | vorinostat -0.064 | citarinostat 0.092 | silmitasertib 0.025 | [6] -0.178

LRP6 (UniProt O75581)
inactive: bafetinib 0.089 | [9] 0.028 | dasatinib -0.011 | [1] 0.048 | tipifarnib 0.085 | [3] 0.218 | [7] -0.145 | entinostat -0.102 | vorinostat 0.017 | citarinostat -0.024 | [6] 0.243

LMO4 (UniProt P61968)
inactive: bafetinib -0.09 | [9] 0.112 | dasatinib 0.122 | [1] 0.04 | [2] -0.233 | tipifarnib 0.081 | mubritinib 0.141 | [7] -0.031 | [8] -0.111 | vorinostat -0.014 | citarinostat 0.128 | silmitasertib 0.015 | [6] 0.116

LCP2 (UniProt Q13094)
inactive: bafetinib -0.034 | [9] -0.02 | dasatinib -0.099 | [2] -0.057 | [3] -0.118 | [7] -0.036 | [4] -0.094 | entinostat 0.046 | vorinostat -0.059 | citarinostat 0.113 | [5] -0.062 | [6] -0.118

LAS1L (UniProt Q9Y4W2)
inactive: bafetinib 0.187 | [9] -0.135 | dasatinib 0.091 | [1] -0.364 | [2] -0.035 | tipifarnib 0.272 | [3] 0.271 | [7] -0.122 | [4] 0.088 | entinostat 0.024 | vorinostat 0.078 | [5] 0.084

LPGAT1 (UniProt Q92604)
inactive: bafetinib -0.086 | nilotinib -0.04 | [10] -0.128 | dasatinib 0.086 | [11] 0.048 | [1] 0.055 | [2] -0.082 | tipifarnib 0.01 | mubritinib 0.067 | [3] 0.038 | [7] 0.048 | [8] -0.102 | [4] 0.063 | entinostat -0.047 | citarinostat 0.157 | silmitasertib -0.015 | [5] -0.015 | [6] -0.108
